Structures are written as SMILES.

The test system of one test is HepG-2 cells. In words: MTT cytotoxicity assay, HepG-2. The note with it: Homo sapiens, HepG2, HepG-2, 24 hours. The test is classed as cell-based. The text has this:
(§1) The human cervical cancer cell-line, HeLa (CCL-2.2; ATCC, Manassas, VA), HCT-116 (CCL-247; ATCC, Manassas, VA), A549 (CCL-185; ATCC, Manassas, VA), HepG-2 (HB-8065; ATCC, Manassas, VA) and WRL-68 (CL-48; ATCC, Manassas, VA), were obtained from American Type Culture Collection (ATCC). HeLa, A549, HepG2 and WRL68 cells were maintained in Dulbecco’s Modified Eagle Medium (DMEM, Life Technologies, Inc, Rockville, MD). HCT-116 was obtained in McCoy’s 5a Medium Modified (Life Technologies, Inc, Rockville, MD) supplemented with 10 % fetal bovine serum and 1 % penicillin/streptomycin. Cells were incubated at 37 °C in a humidified cell culture 5 % CO2 incubator. Cells were passaged until reaching 70-80-% confluency for experimental purposes.
(§2) Cytotoxicity of MBIC was estimated by MTT assay. Briefly, 1 × 10^4 cells/well were seeded in a 96-well plate and incubated at 37 °C in 5 % CO2. After 24 h, cells were treated with different concentrations (0.02, 0.04, 0.1, 0.2, 0.4, 0.8, 1.5, 3, 6, 12, 25, 50 μM) of MBIC. 0.01 % DMSO was used as vehicle control. Cells were incubated for 24 and 48 h at 37 °C. […] The colorimetric assay was quantified at 570 nm wavelength using Chameleon V microplate reader (Hidex, Turku, Finland). The anti-proliferation activity of MBIC was expressed as an IC50 value. The percentage of cell viability was calculated as described previously.
For orientation: Tetrazolium dyes change colour on reduction, which living cells bring about.

The subject of another test is HCT-116 cells. In words: MTT cytotoxicity assay, HCT-116. The test is classed as cell-based. As to conditions: Homo sapiens, HCT-116, 48 hours.
Source text: as §1, §2

For orientation: IC50 means the concentration that inhibits the measured activity by half. Lower therefore signals inhibition by little substance. In the case of `COc1cc2c(c(OC)c1OC)-c1ccc(OC)c(=O)cc1[C@@H](NC(C)=O)CC2` [Colchicine], the IC50 in the test with HepG-2 cells came out at 8.36 ± 0.9 µM; in the test on HCT-116 cells, 3.44 ± 0.2 µM.

Source of the values: paper PMC4815073, “Targeting of tubulin polymerization and induction of mitotic blockage by Methyl 2-(5-fluoro-2-hydroxyphenyl)-1H-benzo[d]imidazole-5-carboxylate (MBIC) in human cervical cancer HeLa cell” (Journal of Experimental & Clinical Cancer Research : CR, 2016).
